Laboratory results: PubChem BioAssay AID504793 (Drosophila RNAi Screening Center, 2011)
The screen tested about 23,000 reagents; below is an unselected part of those that have a named target and a result. Over the whole deposit, 62 (0.27%) are marked active. 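Calls come from follow-up tests whose scores are not deposited, so confirmed genes may have low counts here; counts are not normalised per plate.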 Raw values are not corrected between plates. The numbers tell different reagents against one gene apart. Names joined by + are all predicted targets of the reagent.

Assay: 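Knock-downs allowing continued mitosis even though DNA is damaged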 (primary screen)
Cell system: Drosophila S2R+ cells
Knock-down reagent: long dsRNA against Drosophila genes, about 0.25 µg dsRNA per well
Duration: 4 days of dsRNA, then 4 hours of drug before read-out
Treatment: doxorubicin 0.5 µM for 4 hours to cause double-strand breaks, in cells also given a low, harmless dose of dsRNA against nbs to sensitise the assay
Measured: 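Per-well count of mitotic cells stained for phospho-histone H3 after doxorubicin exposure, used as mitotic index; counts are raw and not normalised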
Reading the numbers: mitotic cells: higher = more cells in mitosis, weaker G2 arrest
Rule for the call: 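Genes are called active only when high mitotic counts were reproduced with independent dsRNAs and mitosis was checked for delay without damage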
Calls: active = confirmed in follow-up tests; inactive = not confirmed

The opening 3 entries, ahead of the listing:
| gene | reagent no. | mitotic cells, replicate 1 | call |
| --- | --- | --- | --- |
| aop (anterior open) | 1 | 8 | inactive |
| aop (anterior open) | 2 | 9 | inactive |
| aop (anterior open) | 3 | 18 | inactive |

Results, from the first entry:
| gene | reagent no. | mitotic cells, replicate 1 | call |
| --- | --- | --- | --- |
| aop (anterior open) | 1 | 8 | inactive |
| aop (anterior open) | 2 | 9 | inactive |
| aop (anterior open) | 3 | 18 | inactive |
| CG5853 | 1 | 16 | inactive |
| CG5853 | 2 | 3 | inactive |
| mbt (mushroom bodies tiny) | 1 | 7 | inactive |
| mbt (mushroom bodies tiny) | 2 | 5 | inactive |
| Adi1 (Acireductone dioxygenase 1) | 1 | 10 | inactive |
| Adi1 (Acireductone dioxygenase 1) | 2 | 8 | inactive |
| Liprin-alpha | 1 | 8 | inactive |
| Liprin-alpha | 2 | 3 | inactive |
| cyst (cysts) | 1 | 10 | inactive |
| iotaTry (iotaTrypsin) | 1 | 6 | inactive |
| B52 | 1 | 13 | inactive |
| B52 | 2 | 3 | inactive |
| CG10570 + CG42502 | 1 | 3 | inactive |
| ear (ENL/AF9-related) | 1 | 4 | inactive |
| ear (ENL/AF9-related) | 2 | 8 | inactive |
| Cds + Setx | 1 | 3 | inactive |
| CG12236 | 1 | 9 | inactive |
| CG12236 | 2 | 7 | inactive |
| Boh1 (Buddy of Hmr 1) | 1 | 8 | inactive |
| CG32533 | 1 | 6 | inactive |
| CG32533 | 2 | 7 | inactive |
| CG32533 | 3 | 1 | inactive |
| Tpl94D (Transition protein-like 94D) | 1 | 24 | inactive |
| SmD2 (Small ribonucleoprotein particle protein SmD2) | 1 | 6 | inactive |
| SmD2 (Small ribonucleoprotein particle protein SmD2) | 2 | 6 | inactive |
| CG14778 | 1 | 8 | inactive |
| brv2 (brivido-2) | 1 | 5 | inactive |
| brv2 (brivido-2) | 2 | 7 | inactive |
| CG33160 | 1 | 6 | inactive |
| CG33160 | 2 | 7 | inactive |
| CG11168 | 1 | 13 | inactive |
| Gbp1 (Growth-blocking peptide 1) | 1 | 13 | inactive |
| CG30075 | 1 | 8 | inactive |
| CG5913 | 1 | 3 | inactive |
| unk (unkempt) | 1 | 6 | inactive |
| unk (unkempt) | 2 | 4 | inactive |
| Srpk79D (Serine-arginine protein kinase at 79D) | 1 | 6 | inactive |
| Srpk79D (Serine-arginine protein kinase at 79D) | 2 | 4 | inactive |
| Srpk79D (Serine-arginine protein kinase at 79D) | 3 | 5 | inactive |
| Sf3b3 (Splicing factor 3b subunit 3) | 1 | 5 | inactive |
| CG30411 | 1 | 5 | inactive |
| CG30411 | 2 | 9 | inactive |
| spoon (spoonbill) | 1 | 4 | inactive |
| spoon (spoonbill) | 2 | 6 | inactive |
| CG5126 | 1 | 7 | inactive |
| CG32847 | 1 | 9 | inactive |
| CG10862 | 1 | 11 | inactive |
| AsnRS-m (Asparaginyl-tRNA synthetase, mitochondrial) | 1 | 6 | inactive |
| CG31606 | 1 | 10 | inactive |
| Ir7a (Ionotropic receptor 7a) | 1 | 7 | inactive |
| CG12608 | 1 | 2 | inactive |
| CG14245 | 1 | 15 | inactive |
| Cpr51A (Cuticular protein 51A) | 1 | 5 | inactive |
| CG6791 | 1 | 6 | inactive |
| CG6791 | 2 | 10 | inactive |
| CG6693 | 1 | 5 | inactive |
| CG9899 | 1 | 8 | inactive |
| CG15865 | 1 | 4 | inactive |
| vret (vreteno) | 1 | 9 | inactive |
| rtv (retroactive) | 1 | 5 | inactive |
| CG42795 | 1 | 7 | inactive |
| CG42795 | 2 | 6 | inactive |
| CG42795 | 3 | 9 | inactive |
| RpL17 (Ribosomal protein L17) | 1 | 6 | inactive |
| RpL17 (Ribosomal protein L17) | 2 | 7 | inactive |
| CG31371 | 1 | 8 | inactive |
| E(spl)m6-BFM (Enhancer of split m6, Bearded family member) | 1 | 7 | inactive |
| Sgs5 (Salivary gland secretion 5) | 1 | 11 | inactive |
| opa (odd paired) | 1 | 6 | inactive |
| opa (odd paired) | 2 | 6 | inactive |
| opa (odd paired) | 3 | 5 | inactive |
| CG2006 + Spase12 | 1 | 6 | inactive |
| COX6AL2 + Ir75d | 1 | 4 | inactive |
| Eip63E (Ecdysone-induced protein 63E) | 1 | 5 | inactive |
| Ir47a (Ionotropic receptor 47a) | 1 | 5 | inactive |
| CG43896 | 1 | 9 | inactive |
| CG43896 | 2 | 4 | inactive |
| CG7215 + Prx5 | 1 | 5 | inactive |
| CG7215 + Prx5 | 2 | 8 | inactive |
| CG7246 | 1 | 14 | inactive |
| ScsbetaG (Succinyl-coenzyme A synthetase beta subunit, GDP-forming) | 1 | 3 | inactive |
| ScsbetaG (Succinyl-coenzyme A synthetase beta subunit, GDP-forming) | 2 | 8 | inactive |
| RpS24 (Ribosomal protein S24) | 1 | 8 | inactive |
| RpS24 (Ribosomal protein S24) | 2 | 4 | inactive |
| CecA2 (Cecropin A2) | 1 | 14 | inactive |
| Cyp312a1 (Cytochrome P450 312a1) | 1 | 3 | inactive |
| Cyp312a1 (Cytochrome P450 312a1) | 2 | 3 | inactive |
| E(Pc) (Enhancer of Polycomb) | 1 | 3 | inactive |
| E(Pc) (Enhancer of Polycomb) | 2 | 5 | inactive |
| rau | 1 | 4 | inactive |
| rau | 2 | 7 | inactive |
| CG3407 | 1 | 6 | inactive |
| CG14298 | 1 | 10 | inactive |
| CR18166 (pseudo) | 1 | 1 | inactive |
| CR18166 (pseudo) | 2 | 7 | inactive |
| CR18166 (pseudo) | 3 | 5 | inactive |
| CG2157 | 1 | 8 | inactive |
| CG18809 | 1 | 4 | inactive |
| CG18809 | 2 | 1 | inactive |
| CNT1 + CG13742 | 1 | 5 | inactive |
| CNT1 + CG13742 | 2 | 4 | inactive |
| Ir52d (Ionotropic receptor 52d) | 1 | 17 | inactive |
| mRpL44 (mitochondrial ribosomal protein L44) | 1 | 5 | inactive |
| mRpL44 (mitochondrial ribosomal protein L44) | 2 | 3 | inactive |
| Galt (Galactose-1-phosphate uridylyltransferase) | 1 | 4 | inactive |
| dgt6 (dim gamma-tubulin 6) | 1 | 77 | inactive |
| SCOT (Succinyl-CoA:3-ketoacid CoA transferase) | 1 | 5 | inactive |
| SCOT (Succinyl-CoA:3-ketoacid CoA transferase) | 2 | 6 | inactive |
